Measurements from publication doi:10.1101/2021.06.16.448656.
No constants are given. Whether binding was seen depends on the method and setting. In cells and extracts the contact can be indirect. Here binding means that the protein was enriched with, or labelled near, the bait; the list need not be complete. Where a sequence is shown, tags or fusion partners need not be part of it.

Key:
[1] = target: T1, γ1-COP-ultraID (γ1-COP subunit of coatomer with ultraID fused to its C-terminus) (UniProt Q9QZE5); test: proximity labelling
T1 sequence: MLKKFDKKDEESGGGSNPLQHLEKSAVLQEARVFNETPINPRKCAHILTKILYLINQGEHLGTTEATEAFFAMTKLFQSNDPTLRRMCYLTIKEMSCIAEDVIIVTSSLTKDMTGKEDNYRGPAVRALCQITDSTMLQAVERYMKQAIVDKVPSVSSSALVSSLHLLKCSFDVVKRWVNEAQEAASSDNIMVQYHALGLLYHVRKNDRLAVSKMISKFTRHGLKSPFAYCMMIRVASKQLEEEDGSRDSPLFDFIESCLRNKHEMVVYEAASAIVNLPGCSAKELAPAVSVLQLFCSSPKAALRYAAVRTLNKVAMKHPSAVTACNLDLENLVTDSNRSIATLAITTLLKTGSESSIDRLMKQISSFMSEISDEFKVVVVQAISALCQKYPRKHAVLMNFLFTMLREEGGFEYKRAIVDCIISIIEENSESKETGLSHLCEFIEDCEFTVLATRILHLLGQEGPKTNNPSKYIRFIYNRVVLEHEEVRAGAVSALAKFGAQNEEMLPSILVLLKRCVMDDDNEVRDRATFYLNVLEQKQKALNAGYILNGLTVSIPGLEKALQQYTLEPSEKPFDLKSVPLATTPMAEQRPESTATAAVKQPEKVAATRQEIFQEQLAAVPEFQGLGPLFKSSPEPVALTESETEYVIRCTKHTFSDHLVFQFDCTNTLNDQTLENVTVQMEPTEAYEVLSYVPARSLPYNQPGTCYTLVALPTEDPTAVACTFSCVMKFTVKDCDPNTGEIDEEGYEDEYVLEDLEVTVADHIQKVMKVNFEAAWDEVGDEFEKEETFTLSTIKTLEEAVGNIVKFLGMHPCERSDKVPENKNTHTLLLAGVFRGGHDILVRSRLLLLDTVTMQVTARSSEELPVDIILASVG

[2] = target: T2, γ2-COP-ultraID (γ2-COP subunit of coatomer with ultraID fused to its C-terminus) (UniProt Q9QXK3); test: proximity labelling
T2 sequence: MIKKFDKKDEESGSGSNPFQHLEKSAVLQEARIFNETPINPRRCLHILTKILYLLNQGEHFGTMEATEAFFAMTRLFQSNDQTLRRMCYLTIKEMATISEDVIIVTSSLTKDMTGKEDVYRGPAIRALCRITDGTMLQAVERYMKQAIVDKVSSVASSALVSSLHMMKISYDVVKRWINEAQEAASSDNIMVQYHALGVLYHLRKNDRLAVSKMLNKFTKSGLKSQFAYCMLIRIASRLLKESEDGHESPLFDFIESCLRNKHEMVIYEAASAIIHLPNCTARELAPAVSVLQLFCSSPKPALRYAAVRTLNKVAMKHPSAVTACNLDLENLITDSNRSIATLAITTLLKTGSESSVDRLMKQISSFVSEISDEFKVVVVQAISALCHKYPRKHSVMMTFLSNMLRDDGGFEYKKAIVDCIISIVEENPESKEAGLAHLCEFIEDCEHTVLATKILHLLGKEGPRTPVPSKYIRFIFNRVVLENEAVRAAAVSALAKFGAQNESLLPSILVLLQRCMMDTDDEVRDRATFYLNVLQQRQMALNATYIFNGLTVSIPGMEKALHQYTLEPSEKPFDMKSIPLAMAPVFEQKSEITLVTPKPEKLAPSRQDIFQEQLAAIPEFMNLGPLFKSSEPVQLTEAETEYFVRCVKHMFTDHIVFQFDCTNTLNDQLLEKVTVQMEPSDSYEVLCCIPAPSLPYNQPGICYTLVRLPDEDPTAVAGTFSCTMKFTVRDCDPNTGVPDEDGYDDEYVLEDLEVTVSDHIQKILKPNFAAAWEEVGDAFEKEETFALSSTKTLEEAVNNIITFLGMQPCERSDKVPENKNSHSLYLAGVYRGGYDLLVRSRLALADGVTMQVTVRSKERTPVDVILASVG

B1: TMF (protein, UniProt B9EKI3 1-1091)
chain: MSWFNASQLSSFAKQALSQAQKSIDRVLDIQEEEPSAWAEAIPYGEPGISPPVSGGWDTSTWGLNSTSSEPQSPPTASQAITKPVRRTVVDESENFFSAFLSPSDAHTIQKSPVVSKPPSKSQRPEEEVKSSLQESSSPGQSRVSETAEVRDSVCVSGETSAVGTPSPVPEDKHEETAGEESEVKVPTVRLKASENVVNVNTTEDVSTTSTQSLTAETKDMALEPKEQKHEDRQSNTPSPPVSSFSSGTSTTSDIEVLDHESVISESSASSRQETSDAKSSLHLMQTSFQLLSASACPEYSRLDDFQKLNESCCSSDAFERIDSFSVQSLDSRSVSEINSDDELPGKGYALVPIIVSPSTPKTKVVESTEENAEEEEGNETLVAPSEEAELEESGRSATPVNCDQPDILASPTAGSGGHSASGPATEQCEAVENQPKAPPEKEDVCKTVEFLNEKLEKRETQLLSLSKEKALLEEAYDNLKDEMFRVKEESSSISSLKDEFTQRIAEAEKKVQLACKERDAAKKEMKTIKEELATRLNSSQTADLLKEKDEQIQGLMEEGEKLSKQQLHNSNIIKKLRAKDKDNENVIAKLNRKAKELEEELQHLRQVLDGKEEVEKQHRENIKKLNSVVERQEKDLGRLQVDMDELEEKSRSTQAALDSAYRELTDLHKANAAKDSEVQEAALRREMKAKEELSGALEKAQEEARQQQEALVLQVGDLRLALQRAEQAAARKEDYLRHEISELQQRLQEAENRNQELSQSVSSTARPLLRQIENLQATLGSQTSSWETLEKSLSDRLGESQTLLAAAVERERAATEELLANKIQMSSVESQNTLLRQENSRLQAQLESEKNKLRKLEDENSRYQVELENLKDEYVRTLEESRKEKTLLSSQLEMERMKVEQERKKTIFTQEALKEKDHKLFSVCSTPTMSRSSSISGVDAAGLQASFLSQDESHDHSFGPMSTSASGSNLYEAVRMGAGSSIIENLQSQLKLREGEISHLQLEISNLEKTRSIMSEELVKLTNQNDELEEKVKEIPKLRVQLRDLDQRYNTILQMYGEKAEEAEELRLDLEDVKNMYKTQIDELLRQRLS
binding [1]: binds | binding [2]: binds

B2: GCC88 (protein, UniProt Q9D4H2 1-778)
chain: MEKFGMNFGGGPSKKDLLETIETQKKQLLQYQARLKDVVRAYKSLLKEKEALEASIKVLSVSHEADVGLSGVQPPGLTFPDSVDDRCSTHSEDSTGTATSLDTAASLTSVKGEFGVEDDRAARGPLPPKSEEASGSESGVSSSSGDGPSAGSEMDKRVHQLKTQLATLTSSLATVTQEKSRMEASYLADKKKMKQDLEDANKKAEEERGRLEGDLKVLQEQIAETKARLITQQHDRAQEQSDHALMLRELQKLLQEERTQRQDLELRLEETREALAGRAYAADQVEGFELQTKQLTREVEELKGELQTIRDEKNRPDPRLQELQQEAARLKSHFQAQLQQEMRKTALAEDQLRQQSQVEEQRVAALESQISEVSELLGTYEKAKQKDQLAIQKLKERLLQLDLENKTLALAASSRSSLDIHGDESSLDINVLKDKMEKLKKLLQVAARKSQVTLDVEKLCDPEIMANSEAADGEKATALYYQQELKQLKEEFERYKMRAQVVLKSKNTKDGSLGKELEAAQEQLAELKDKYISLRLSCEELESQHQQEAEDWKQELARLQQLHRQELERSQLDFRDRTLKLEEELHKQRDRALAVLAEKDLELEQLRSVALSSGLPGRRSPVGGVGGGGLGDPADTASSDSLTQALQLAAANEPTFFLYAEQLARKEVEITSLRKQKHRLEVEAHQLQERLLEEGERHREEVGALQSHIEKNMRDQSREGANLEYLKNIIYRFLTLPDSLGRQQTLTAILTILHFSPEEKQVLMRLPSGGSWWPSGKR
binding [1]: binds | binding [2]: binds

B3: Scyl1 (protein, UniProt Q9EQC5 1-806)
chain: MWFFARDPVRDFPFELSPEPPEGGPPGPWILHRGRKKATGSAVSIFVYDVKPGAEEQTQVAKAAFKRLKTLRHPNILAYIDGLETEKCLHIVTEAVTPLGTYLKARAEAGGLKEQELSWGLHQIVKALSFLVNDCNLIHNNVCMAAVFVDRAGEWKLGGLDYMYSAQGNGGGPPSKGIPELEQYDPPELADSSSRAVREKWSADMWRLGCLIWEVFNGSLPRAAALRNPGKIPKSLVTHYCELVGANPKVRPNPARFLQNCRAPGGFMSNRFVETNLFLEEIQIKEPAEKQKFFQELSKSLDSFPEDFCRHKVLPQLLTAFEFGNAGAVVLTPLFKVGKSLRAEEYQEKIIPVVVKMFSSTDRAMRIRLLQQMEQFIQYLDEPTVNTQIFPHVTHGFLDTNPAIREQTVKSMLLLAPKLNEANLNVELMKHFARLQAKDDQGPIRCNTTVCLGKIGSYLSASTRHRVLTSAFSRATKDPFAPSRVAGVLGFAATHNLYSMDDCAHKILPVLCGLTVDPEKSVRDQAFKTIRSFLSKLESVSEDPTQLAEVEKDVHAASSPGTGGAAASWAGWAVTGVSSLTSKLIRAHPTPVPSDTTVPQRPVPEGNPAPAPALAQAIPATSGHWETQEDKDTAEDSATADRWDDEDWGSLEQEAESVLAQQDDWSAKGQGSRAGQINHPDHKSLESHWSSWEVEGSWDQGWQEPSSVEPPPEGTRLASEYNWGGAEPSDKGDPFAALSVRPSAQPRPDPDSWGEDNWEGLEAESRQVKAELARKKREERRREMEAKRAEKKTTKGPMKLGARKLD
binding [1]: binds | binding [2]: binds
